Experimental data as given in PMC12217353.
No constants are given. Whether binding was seen depends on the method and setting. In cells and extracts the contact can be indirect. Some results given as binding are weak or reduced against the parent protein; the word gives no strength. Tags and fused reporters may be left off the sequences shown.

The chains behind the UniProt entries cited, without tags or fusion partners.
UniProt P13569: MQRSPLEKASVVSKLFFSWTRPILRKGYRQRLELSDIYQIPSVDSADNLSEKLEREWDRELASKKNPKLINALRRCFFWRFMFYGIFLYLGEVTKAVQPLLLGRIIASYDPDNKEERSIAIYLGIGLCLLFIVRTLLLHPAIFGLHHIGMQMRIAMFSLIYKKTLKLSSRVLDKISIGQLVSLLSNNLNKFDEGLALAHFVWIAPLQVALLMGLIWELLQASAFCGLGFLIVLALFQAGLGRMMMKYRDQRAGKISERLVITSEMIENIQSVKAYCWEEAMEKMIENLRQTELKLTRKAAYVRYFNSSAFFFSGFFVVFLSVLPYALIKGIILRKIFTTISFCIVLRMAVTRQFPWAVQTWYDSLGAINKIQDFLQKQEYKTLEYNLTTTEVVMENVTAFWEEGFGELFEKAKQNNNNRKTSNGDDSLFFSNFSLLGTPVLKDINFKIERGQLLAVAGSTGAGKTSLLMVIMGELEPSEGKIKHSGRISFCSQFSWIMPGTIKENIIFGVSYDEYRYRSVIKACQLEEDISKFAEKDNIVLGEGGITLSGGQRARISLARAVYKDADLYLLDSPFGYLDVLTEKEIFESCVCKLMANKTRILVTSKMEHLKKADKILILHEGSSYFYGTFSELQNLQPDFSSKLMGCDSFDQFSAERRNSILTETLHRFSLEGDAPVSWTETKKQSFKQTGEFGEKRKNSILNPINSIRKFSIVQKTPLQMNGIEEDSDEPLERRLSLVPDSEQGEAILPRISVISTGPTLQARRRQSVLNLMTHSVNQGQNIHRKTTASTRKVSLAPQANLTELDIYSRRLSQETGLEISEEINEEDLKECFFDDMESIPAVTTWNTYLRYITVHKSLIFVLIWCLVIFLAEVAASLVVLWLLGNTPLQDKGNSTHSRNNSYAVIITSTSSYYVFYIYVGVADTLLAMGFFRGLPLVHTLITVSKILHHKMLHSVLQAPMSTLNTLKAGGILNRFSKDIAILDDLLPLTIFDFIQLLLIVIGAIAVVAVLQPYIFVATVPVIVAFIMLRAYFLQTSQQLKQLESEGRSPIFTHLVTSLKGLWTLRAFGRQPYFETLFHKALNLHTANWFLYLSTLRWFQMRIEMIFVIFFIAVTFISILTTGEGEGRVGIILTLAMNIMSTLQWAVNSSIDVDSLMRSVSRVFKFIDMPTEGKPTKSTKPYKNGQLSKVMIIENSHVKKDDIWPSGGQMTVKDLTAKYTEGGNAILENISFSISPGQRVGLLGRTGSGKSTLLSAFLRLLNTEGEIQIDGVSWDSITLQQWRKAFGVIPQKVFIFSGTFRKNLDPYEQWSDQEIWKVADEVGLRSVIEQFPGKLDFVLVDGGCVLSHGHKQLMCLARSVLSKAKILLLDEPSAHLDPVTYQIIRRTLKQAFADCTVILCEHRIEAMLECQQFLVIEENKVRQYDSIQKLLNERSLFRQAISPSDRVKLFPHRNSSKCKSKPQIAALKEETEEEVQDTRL

T1: NBCe1-B-eGFP (UniProt Q9Y6R1)
T1 sequence: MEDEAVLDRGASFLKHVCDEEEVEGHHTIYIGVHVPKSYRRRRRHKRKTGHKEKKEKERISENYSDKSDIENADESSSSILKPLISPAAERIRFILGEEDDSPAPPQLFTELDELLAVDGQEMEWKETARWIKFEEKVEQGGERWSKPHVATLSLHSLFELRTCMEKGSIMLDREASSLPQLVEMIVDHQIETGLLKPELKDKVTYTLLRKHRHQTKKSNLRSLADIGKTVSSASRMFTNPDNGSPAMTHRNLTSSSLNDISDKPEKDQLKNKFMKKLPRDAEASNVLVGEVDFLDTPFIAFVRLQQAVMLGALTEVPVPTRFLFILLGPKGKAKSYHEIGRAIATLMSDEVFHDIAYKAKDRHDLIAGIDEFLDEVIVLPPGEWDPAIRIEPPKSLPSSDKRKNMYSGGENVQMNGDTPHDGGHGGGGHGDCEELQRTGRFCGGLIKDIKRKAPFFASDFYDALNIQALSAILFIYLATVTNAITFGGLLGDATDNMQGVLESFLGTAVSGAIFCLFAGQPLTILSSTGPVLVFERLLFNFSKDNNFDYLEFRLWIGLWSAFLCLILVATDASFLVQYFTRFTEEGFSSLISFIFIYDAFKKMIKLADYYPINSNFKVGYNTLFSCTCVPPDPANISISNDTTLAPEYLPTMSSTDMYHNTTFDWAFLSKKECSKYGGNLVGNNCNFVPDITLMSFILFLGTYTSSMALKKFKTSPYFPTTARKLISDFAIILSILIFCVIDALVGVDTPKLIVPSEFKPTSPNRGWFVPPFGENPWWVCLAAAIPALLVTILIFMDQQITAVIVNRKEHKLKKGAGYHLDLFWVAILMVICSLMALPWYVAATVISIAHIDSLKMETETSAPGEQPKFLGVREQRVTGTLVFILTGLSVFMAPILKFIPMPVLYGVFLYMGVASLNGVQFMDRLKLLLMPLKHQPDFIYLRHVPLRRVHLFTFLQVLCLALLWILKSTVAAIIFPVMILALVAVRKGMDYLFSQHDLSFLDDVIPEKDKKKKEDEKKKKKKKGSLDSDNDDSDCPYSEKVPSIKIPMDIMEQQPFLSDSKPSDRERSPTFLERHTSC

T2: (Δ1-95)NBCe1-B (UniProt Q9Y6R1)
T2 sequence: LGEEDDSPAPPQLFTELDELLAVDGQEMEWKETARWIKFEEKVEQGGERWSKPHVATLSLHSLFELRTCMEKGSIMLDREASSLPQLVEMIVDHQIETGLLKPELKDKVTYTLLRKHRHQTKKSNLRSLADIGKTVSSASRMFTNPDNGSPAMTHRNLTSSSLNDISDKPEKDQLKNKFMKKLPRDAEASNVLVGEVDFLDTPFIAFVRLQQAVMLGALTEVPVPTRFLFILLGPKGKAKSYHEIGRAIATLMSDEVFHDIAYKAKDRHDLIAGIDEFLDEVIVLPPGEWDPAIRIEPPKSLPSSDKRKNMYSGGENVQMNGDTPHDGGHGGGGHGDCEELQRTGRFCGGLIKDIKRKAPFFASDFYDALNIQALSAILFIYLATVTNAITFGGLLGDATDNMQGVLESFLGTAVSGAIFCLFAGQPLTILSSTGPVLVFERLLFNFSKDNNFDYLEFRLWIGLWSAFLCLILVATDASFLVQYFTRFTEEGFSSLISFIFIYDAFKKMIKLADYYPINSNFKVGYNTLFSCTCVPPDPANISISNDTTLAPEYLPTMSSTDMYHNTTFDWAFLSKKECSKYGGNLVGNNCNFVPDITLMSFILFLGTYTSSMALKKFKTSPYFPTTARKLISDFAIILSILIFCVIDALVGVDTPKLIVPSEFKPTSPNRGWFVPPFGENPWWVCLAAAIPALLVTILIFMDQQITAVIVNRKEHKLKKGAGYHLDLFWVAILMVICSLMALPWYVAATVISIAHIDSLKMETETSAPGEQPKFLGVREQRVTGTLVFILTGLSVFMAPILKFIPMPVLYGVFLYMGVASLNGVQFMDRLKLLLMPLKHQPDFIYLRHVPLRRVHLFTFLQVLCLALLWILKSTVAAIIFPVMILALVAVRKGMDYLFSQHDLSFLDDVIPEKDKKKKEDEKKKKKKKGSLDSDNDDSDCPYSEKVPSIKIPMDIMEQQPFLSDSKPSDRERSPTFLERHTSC

T3: NBCe1-B(R44A) (UniProt Q9Y6R1)
T3 sequence: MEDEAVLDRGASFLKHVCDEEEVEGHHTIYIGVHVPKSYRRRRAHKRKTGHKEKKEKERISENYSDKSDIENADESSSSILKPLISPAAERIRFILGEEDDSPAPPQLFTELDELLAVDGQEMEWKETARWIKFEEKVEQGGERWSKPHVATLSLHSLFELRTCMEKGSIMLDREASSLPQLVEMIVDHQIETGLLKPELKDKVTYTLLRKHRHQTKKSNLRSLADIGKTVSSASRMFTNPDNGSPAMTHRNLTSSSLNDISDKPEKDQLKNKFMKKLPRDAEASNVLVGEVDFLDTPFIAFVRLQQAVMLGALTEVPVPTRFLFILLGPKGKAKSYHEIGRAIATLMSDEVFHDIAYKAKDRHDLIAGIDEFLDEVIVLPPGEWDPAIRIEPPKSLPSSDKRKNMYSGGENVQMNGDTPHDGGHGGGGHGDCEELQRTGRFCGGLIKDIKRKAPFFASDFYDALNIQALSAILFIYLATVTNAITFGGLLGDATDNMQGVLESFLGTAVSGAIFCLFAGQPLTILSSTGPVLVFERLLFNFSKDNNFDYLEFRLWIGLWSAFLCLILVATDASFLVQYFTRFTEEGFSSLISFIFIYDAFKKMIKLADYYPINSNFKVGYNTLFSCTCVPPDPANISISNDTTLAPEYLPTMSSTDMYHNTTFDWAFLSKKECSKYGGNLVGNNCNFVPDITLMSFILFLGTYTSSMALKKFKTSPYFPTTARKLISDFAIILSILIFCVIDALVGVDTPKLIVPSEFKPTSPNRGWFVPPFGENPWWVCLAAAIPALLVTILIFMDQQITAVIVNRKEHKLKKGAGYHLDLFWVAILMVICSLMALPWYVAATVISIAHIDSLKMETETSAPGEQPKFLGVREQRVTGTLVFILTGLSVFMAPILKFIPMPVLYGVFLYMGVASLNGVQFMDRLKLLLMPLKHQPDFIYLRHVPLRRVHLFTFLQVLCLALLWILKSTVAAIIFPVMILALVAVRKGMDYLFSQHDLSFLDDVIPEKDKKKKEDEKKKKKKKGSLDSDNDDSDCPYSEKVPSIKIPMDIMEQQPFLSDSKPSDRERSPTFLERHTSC


What was measured:
[1] = biological target: T1, NBCe1-B-eGFP; experiment: co-IP; lysates of transfected HEK293T cells (PBS with 1% Triton X-100, phosphatase and protease inhibitors, pH 7.4); antibodies overnight at 4 °C, Sepharose beads for 4 h, three washes, blots; some cells co-expressing E-Syt3 or E3C2C, or depleted of PI(4,5)P2 (FRB + FKBP-5PIPase, 0.5 µM rapamycin for 8 min)
[2] = biological target: T2, (Δ1-95)NBCe1-B; experiment: as above
[3] = biological target: T3, NBCe1-B(R44A); experiment: as above
[4] = biological target: CFTR-GFP (UniProt P13569); experiment: as above
[5] = biological target: T1, NBCe1-B-eGFP; experiment: FRET or BRET; live HEK293T cells co-transfected with fluorescent-tagged constructs for 16-18 h; confocal FRET imaging at 37 °C; FRET ratios; some cells stimulated with forskolin/IBMX, co-expressing E-Syt3, ORP5 or ORP8, or depleted of ORP5
[6] = biological target: CFTR-GFP (UniProt P13569); experiment: as above

binding [1]	binding [2]	binding [3]	binding [4]	binding [5]	binding [6]	Binder
binds	binds	binds	binds			E-Syt3-Myc (protein, UniProt A0FGR9 1-886) MRAEEPCAPGAPSALGAQRTPGPELRLSSQLLPELCTFVVRVLFYLGPVYLAGYLGLSITWLLLGALLWMWWRRNRRGKLGRLAAAFEFLDNEREFISRELRGQHLPAWIHFPDVERVEWANKIISQTWPYLSMIMESKFREKLEPKIREKSIHLRTFTFTKLYFGQKCPRVNGVKAHTNTCNRRRVTVDLQICYIGDCEISVELQKIQAGVNGIQLQGTLRVILEPLLVDKPFVGAVTVFFLQKPHLQINWTGLTNLLDAPGINDVSDSLLEDLIATHLVLPNRVTVPVKKGLDLTNLRFPLPCGVIRVHLLEAEQLAQKDNFLGLRGKSDPYAKVSIGLQHFRSRTIYRNLNPTWNEVFEFMVYEVPGQDLEVDLYDEDTDRDDFLGSLQICLGDVMTNRVVDEWFVLNDTTSGRLHLRLEWLSLLTDQEVLTEDHGGLSTAILVVFLESACNLPRNPFDYLNGEYRAKKLSRFARNKVSKDPSSYVKLSVGKKTHTSKTCPHNKDPVWSQVFSFFVHNVATERLHLKVLDDDQECALGMLEVPLCQILPYADLTLEQRFQLDHSGLDSLISMRLVLRFLQVEERELGSPYTGPEALKKGPLLIKKVATNQGPKAQPQEEGPTDLPCPPDPASDTKDVSRSTTTTTSATTVATEPTSQETGPEPKGKDSAKRFCEPIGEKKSPATIFLTVPGPHSPGPIKSPRPMKCPASPFAWPPKRLAPSMSSLNSLASSCFDLADISLNIEGGDLRRRQLGEIQLTVRYVCLRRCLSVLINGCRNLTPCTSSGADPYVRVYLLPERKWACRKKTSVKRKTLEPLFDETFEFFVPMEEVKKRSLDVAVKNSRPLGSHRRKELGKVLIDLSKEDLIKGFSQWYELTPNGQPRS
				binds	binds	E-Syt2 (fluorescent-tagged, FRET) (protein, UniProt A0FGR8 1-921) MTANRDAALSSHRHPGCAQRPRTPTFASSSQRRSAFGFDDGNFPGLGERSHAPGSRLGARRRAKTARGLRGHRQRGAGAGLSRPGSARAPSPPRPGGPENPGGVLSVELPGLLAQLARSFALLLPVYALGYLGLSFSWVLLALALLAWCRRSRGLKALRLCRALALLEDEERVVRLGVRACDLPAWVHFPDTERAEWLNKTVKHMWPFICQFIEKLFRETIEPAVRGANTHLSTFSFTKVDVGQQPLRINGVKVYTENVDKRQIILDLQISFVGNCEIDLEIKRYFCRAGVKSIQIHGTMRVILEPLIGDMPLVGALSIFFLRKPLLEINWTGLTNLLDVPGLNGLSDTIILDIISNYLVLPNRITVPLVSEVQIAQLRFPVPKGVLRIHFIEAQDLQGKDTYLKGLVKGKSDPYGIIRVGNQIFQSRVIKENLSPKWNEVYEALVYEHPGQELEIELFDEDPDKDDFLGSLMIDLIEVEKERLLDEWFTLDEVPKGKLHLRLEWLTLMPNASNLDKVLTDIKADKDQANDGLSSALLILYLDSARNLPSGKKISSNPNPVVQMSVGHKAQESKIRYKTNEPVWEENFTFFIHNPKRQDLEVEVRDEQHQCSLGNLKVPLSQLLTSEDMTVSQRFQLSNSGPNSTIKMKIALRVLHLEKRERPPDHQHSAQVKRPSVSKEGRKTSIKSHMSGSPGPGGSNTAPSTPVIGGSDKPGMEEKAQPPEAGPQGLHDLGRSSSSLLASPGHISVKEPTPSIASDISLPIATQELRQRLRQLENGTTLGQSPLGQIQLTIRHSSQRNKLIVVVHACRNLIAFSEDGSDPYVRMYLLPDKRRSGRRKTHVSKKTLNPVFDQSFDFSVSLPEVQRRTLDVAVKNSGGFLSKDKGLLGKVLVALASEELAKGWTQWYDLTEDGTRPQAMT
